Cleaved PARP in drug-treated melanoma cells

Data from the primary screen of doi:10.1371/journal.pone.0140310, rounded.

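Human melanoma cell lines in 1,536-well plates were treated with a pair of drugs for 72 h, then fixed, stained and imaged. Each value is the cleaved-PARP-positive fraction of nuclei relative to DMSO-treated wells, in %, so that 100 equals the control and higher values mean more apoptosis. Concentrations were fixed for each drug; these are the higher of two levels. No replicate spread is given; individual values may be noisy. Basal and induced levels differ widely between cell lines.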 An unselected part of the screen is shown.

First drug in all entries: lapatinib, 4000 nM, CS(=O)(=O)CCNCc1ccc(-c2ccc3ncnc(Nc4ccc(OCc5cccc(F)c5)c(Cl)c4)c3c2)o1

{"second drug": "c1cc(-c2cnn3cc(-c4ccc(OCCN5CCCCC5)cc4)cnc23)ccn1 at 2000 nM", "RPMI-7951": 317, "WM115": 41.7}
{"second drug": "O=C(O)c1ccc2c(c1)nc(Nc1cccc(Cl)c1)c1ccncc12 at 2000 nM", "RPMI-7951": 606, "WM115": 442}
{"second drug": "Oc1nc(-c2ccc(C(F)(F)F)cc2)nc2c1CSCC2 at 10000 nM", "RPMI-7951": 84.0, "WM115": 126}
{"second drug": "O=C(O)c1ccc(-c2c[nH]c3ncc(-c4ccccc4)cc23)cc1C1CCCC1 at 800 nM", "RPMI-7951": 328, "WM115": 91.5}
{"second drug": "Cn1cnc2c(F)c(Nc3ccc(Br)cc3Cl)c(C(=O)NOCCO)cc21 at 75 nM", "RPMI-7951": 175, "WM115": 65.1}
{"second drug": "CN1CCN(c2ccc3nc(-c4c(N)c5c(F)cccc5[nH]c4=O)[nH]c3c2)CC1 at 500 nM", "RPMI-7951": 152, "WM115": 165}
{"second drug": "O=c1[nH]nc(Sc2ncc([N+](=O)[O-])s2)n1-c1ccc2c(c1)OCCO2 at 1000 nM", "RPMI-7951": 273, "WM115": 112}
{"second drug": "Cc1cc(SCc2sc(-c3ccc(C(F)(F)F)c(F)c3)nc2C)ccc1OCC(=O)O at 10000 nM", "RPMI-7951": 90.3, "WM115": 72.4}
{"second drug": "CN(C)S(=O)(=O)c1ccc2c(c1)/C(=C/c1cc3c([nH]1)CCCC3)C(=O)N2 at 2000 nM", "RPMI-7951": 173, "WM115": 378}
{"second drug": "C[C@]12O[C@H](C[C@]1(O)CO)n1c3ccccc3c3c4c(c5c6ccccc6n2c5c31)CNC4=O at 20 nM", "RPMI-7951": 365, "WM115": 216}
{"second drug": "CCN(CC)CCNC(=O)c1c(C)[nH]c(/C=C2\\C(=O)Nc3ccc(F)cc32)c1C at 2000 nM", "RPMI-7951": 475, "WM115": 196}
{"second drug": "CC(C)CCN1c2nc(Nc3cc(F)c(O)c(F)c3)ncc2N(C)C(=O)C1C (centres undefined) at 1000 nM", "RPMI-7951": 114, "WM115": 99.0}
{"second drug": "C[C@@H]1CCN(C(=O)CC#N)C[C@@H]1N(C)c1ncnc2[nH]ccc12 at 5000 nM", "RPMI-7951": 137, "WM115": 100}
{"second drug": "COc1ccc(-c2ccc3c(N4CCOCC4)nc(N4C[C@@H](C)O[C@@H](C)C4)nc3n2)cc1CO at 100 nM", "RPMI-7951": 92.8, "WM115": 109}
{"second drug": "C/C(O)=C(\\C#N)C(=O)Nc1cc(Br)ccc1Br at 10000 nM", "RPMI-7951": 289, "WM115": 186}

The first 2 entries again:

{"second drug": "c1cc(-c2cnn3cc(-c4ccc(OCCN5CCCCC5)cc4)cnc23)ccn1 at 2000 nM", "RPMI-7951": 317, "WM115": 41.7}
{"second drug": "O=C(O)c1ccc2c(c1)nc(Nc1cccc(Cl)c1)c1ccncc12 at 2000 nM", "RPMI-7951": 606, "WM115": 442}